Values of other authors, collected in patent publication US20250161326A1, “COMBINATION THERAPY” (INTERCEPT PHARMACEUTICALS, INC., priority 2022, published 2025).
At least one structure is not confirmed: it was looked up by name or label, or the drawing left a doubt.

Conditions: BZF 400 mg, Month 24, 46 subjects with PBC; IQR −66 U/L to −46 U/L

For `CC(C)(Oc1ccc(CCNC(=O)c2ccc(Cl)cc2)cc1)C(=O)O` [BZF, Bezafibrate], the “median change from baseline in ALP” value is listed as −60 U/L.
